This test addresses cytohesin-1 (human (endogenous in primary T cells)) (UniProt Q15438). Description: co-IP; 0.5 mg primary human T cell extract with 0.5 µg anti-cytohesin (goat IgG as control), 2.5 h, 4°C; protein A/G magnetic beads; washed x3 with 50 mM Tris-HCl pH 7.5, 0.2 M NaCl, 1% Triton X-100; blotted for CYTIP and SNX27; cells with or without IL-7 overnight and with or without CD3 cross-linking for 8 min.

The chains behind the UniProt entries cited, without tags or fusion partners.
UniProt Q15438: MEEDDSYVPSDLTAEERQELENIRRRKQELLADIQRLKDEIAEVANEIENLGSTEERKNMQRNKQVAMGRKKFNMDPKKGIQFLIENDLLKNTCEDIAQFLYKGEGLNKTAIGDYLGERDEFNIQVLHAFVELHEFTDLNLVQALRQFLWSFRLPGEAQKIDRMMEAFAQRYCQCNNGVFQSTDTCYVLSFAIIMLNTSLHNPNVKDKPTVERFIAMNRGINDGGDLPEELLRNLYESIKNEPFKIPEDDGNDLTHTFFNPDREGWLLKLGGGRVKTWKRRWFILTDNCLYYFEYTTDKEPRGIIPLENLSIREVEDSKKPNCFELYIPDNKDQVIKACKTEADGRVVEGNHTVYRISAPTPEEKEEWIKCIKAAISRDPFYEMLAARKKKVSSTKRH

No constants are given. Whether binding was seen depends on the method and setting. Binding seen in cells or lysates may run through a third protein. Some binding calls cover weakened binding; strength is not graded here.

B1: cytohesin interacting protein (CYTIP) (protein, UniProt O60759 1-359)
chain: MSLQRLLQHSSNGNLADFCAGPAYSSYSTLTGSLTMDDNRRIQMLADTVATLPRGRKQLALTRSSSLSDFSWSQRKLVTVEKQDNETFGFEIQSYRPQNQNACSSEMFTLICKIQEDSPAHCAGLQAGDVLANINGVSTEGFTYKQVVDLIRSSGNLLTIETLNGTMILKRTELEAKLQVLKQTLKQKWVEYRSLQLQEHRLLHGDAANCPSLENMDLDELSLFGPLPGPGPALVDRNRLSSESSCKSWLSSMTMDSEDGYQTCVSEDSSRGAFSRQTSTDDECFIPKEGDDFLRRSSSRRNRSISNTSSGSMSPLWEGNLSSMFGTLPRKSRKGSVRKQLLKFIPGLHRAVEEEESRF
modifications: phosphothreonine at 280 (pThr280), dephosphorylated upon IL-7 stimulation
For B1, the binding entry is given as “binds”.

For the origin of these results see PMC8883493.
